Source: the supplement of paper PMC10849652
The other results are listed elsewhere or left out.

Amino acid sequences for entries named in this document (tags omitted). A change or cut given only in a name is not applied to a line headed by its entry.
UniProt O95214: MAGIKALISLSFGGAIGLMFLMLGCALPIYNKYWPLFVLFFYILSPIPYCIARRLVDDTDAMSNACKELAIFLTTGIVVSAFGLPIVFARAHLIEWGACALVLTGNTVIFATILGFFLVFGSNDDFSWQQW
UniProt P23490: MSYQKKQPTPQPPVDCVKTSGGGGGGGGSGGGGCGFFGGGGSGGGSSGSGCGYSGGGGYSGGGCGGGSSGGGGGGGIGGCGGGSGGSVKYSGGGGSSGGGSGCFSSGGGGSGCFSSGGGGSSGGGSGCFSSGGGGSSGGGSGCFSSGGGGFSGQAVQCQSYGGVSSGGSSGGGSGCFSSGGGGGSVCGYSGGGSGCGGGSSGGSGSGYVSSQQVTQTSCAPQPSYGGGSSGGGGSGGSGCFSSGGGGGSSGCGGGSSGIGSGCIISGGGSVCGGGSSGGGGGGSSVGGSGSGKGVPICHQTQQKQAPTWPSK
UniProt Q96JN0: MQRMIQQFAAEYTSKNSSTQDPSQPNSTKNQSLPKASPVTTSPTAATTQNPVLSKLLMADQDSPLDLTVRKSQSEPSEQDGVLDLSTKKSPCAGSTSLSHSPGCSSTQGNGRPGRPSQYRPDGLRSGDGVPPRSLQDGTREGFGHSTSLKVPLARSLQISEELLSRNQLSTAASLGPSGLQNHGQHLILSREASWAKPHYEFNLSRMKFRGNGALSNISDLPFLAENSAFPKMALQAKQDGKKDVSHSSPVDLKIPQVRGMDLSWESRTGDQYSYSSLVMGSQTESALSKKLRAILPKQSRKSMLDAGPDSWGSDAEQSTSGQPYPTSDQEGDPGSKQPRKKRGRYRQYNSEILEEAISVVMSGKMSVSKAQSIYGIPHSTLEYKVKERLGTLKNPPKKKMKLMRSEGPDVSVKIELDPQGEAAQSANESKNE
UniProt Q9BQE6: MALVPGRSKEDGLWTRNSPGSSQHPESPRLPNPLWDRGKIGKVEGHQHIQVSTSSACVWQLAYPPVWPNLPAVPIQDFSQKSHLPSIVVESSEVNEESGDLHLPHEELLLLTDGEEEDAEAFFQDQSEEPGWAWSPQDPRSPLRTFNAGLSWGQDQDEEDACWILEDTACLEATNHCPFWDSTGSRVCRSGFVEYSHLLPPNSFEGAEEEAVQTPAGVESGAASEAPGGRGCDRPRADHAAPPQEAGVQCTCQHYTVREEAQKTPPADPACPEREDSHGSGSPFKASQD
UniProt O75197: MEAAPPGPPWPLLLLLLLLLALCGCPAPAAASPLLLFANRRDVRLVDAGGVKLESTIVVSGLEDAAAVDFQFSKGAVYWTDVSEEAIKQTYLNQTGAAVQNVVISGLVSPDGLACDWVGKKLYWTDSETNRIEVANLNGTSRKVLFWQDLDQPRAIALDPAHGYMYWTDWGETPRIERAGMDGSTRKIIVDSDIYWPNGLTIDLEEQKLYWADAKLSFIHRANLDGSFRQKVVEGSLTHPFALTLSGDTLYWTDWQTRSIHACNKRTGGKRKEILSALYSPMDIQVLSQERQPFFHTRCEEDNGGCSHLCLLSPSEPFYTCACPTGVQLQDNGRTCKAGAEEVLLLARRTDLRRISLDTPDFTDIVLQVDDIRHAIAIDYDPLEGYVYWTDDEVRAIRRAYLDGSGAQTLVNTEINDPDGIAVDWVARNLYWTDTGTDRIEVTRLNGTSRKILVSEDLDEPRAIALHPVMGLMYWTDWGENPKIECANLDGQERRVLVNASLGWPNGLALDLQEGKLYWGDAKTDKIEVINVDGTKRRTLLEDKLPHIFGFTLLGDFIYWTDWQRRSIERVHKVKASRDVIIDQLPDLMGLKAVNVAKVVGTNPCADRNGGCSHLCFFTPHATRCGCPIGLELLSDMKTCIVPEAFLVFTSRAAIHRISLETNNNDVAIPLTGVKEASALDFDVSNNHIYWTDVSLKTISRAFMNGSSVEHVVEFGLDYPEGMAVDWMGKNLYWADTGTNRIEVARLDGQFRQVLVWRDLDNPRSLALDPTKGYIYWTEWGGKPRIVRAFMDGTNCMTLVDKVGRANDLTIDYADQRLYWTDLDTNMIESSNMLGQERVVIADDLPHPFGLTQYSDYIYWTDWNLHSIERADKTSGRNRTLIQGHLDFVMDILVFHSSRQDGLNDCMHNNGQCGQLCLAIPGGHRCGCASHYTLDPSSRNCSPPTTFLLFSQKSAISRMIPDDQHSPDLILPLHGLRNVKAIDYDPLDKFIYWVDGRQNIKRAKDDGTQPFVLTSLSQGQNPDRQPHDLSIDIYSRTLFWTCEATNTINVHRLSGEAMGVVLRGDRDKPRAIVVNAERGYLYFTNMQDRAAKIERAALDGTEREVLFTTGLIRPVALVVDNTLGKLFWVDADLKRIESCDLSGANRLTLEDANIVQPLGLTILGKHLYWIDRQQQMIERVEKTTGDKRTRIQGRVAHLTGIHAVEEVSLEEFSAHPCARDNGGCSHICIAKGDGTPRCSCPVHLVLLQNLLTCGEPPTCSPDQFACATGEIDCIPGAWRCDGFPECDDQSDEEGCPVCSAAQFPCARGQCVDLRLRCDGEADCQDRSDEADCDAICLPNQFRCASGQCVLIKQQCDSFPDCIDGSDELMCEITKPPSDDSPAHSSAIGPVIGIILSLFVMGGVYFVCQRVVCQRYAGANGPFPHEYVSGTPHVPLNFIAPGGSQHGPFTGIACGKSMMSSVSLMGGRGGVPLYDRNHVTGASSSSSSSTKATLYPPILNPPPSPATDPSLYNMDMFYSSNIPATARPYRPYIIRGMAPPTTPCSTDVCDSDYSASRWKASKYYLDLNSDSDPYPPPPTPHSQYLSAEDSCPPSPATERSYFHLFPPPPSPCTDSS
UniProt Q8N386: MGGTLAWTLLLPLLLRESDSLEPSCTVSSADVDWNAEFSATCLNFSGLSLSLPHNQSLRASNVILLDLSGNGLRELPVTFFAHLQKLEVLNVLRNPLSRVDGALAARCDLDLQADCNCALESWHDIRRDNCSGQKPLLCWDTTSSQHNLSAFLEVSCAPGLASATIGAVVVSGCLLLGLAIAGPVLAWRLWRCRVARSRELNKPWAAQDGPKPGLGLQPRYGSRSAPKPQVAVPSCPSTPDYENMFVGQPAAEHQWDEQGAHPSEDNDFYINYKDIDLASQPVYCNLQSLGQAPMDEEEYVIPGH
UniProt Q86WU2: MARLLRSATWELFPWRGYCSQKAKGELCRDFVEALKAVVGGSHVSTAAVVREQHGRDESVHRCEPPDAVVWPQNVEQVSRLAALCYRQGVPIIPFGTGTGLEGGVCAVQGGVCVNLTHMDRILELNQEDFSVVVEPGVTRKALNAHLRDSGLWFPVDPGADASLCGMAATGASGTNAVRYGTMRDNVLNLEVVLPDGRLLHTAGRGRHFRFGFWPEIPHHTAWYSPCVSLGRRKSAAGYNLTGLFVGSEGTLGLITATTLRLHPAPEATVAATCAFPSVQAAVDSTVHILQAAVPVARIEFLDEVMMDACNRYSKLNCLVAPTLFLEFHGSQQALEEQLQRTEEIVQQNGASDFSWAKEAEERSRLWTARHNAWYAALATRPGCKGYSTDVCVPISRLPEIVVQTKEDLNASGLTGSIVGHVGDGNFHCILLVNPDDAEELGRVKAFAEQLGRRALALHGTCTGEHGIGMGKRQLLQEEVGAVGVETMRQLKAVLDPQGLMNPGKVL
UniProt Q86VQ0: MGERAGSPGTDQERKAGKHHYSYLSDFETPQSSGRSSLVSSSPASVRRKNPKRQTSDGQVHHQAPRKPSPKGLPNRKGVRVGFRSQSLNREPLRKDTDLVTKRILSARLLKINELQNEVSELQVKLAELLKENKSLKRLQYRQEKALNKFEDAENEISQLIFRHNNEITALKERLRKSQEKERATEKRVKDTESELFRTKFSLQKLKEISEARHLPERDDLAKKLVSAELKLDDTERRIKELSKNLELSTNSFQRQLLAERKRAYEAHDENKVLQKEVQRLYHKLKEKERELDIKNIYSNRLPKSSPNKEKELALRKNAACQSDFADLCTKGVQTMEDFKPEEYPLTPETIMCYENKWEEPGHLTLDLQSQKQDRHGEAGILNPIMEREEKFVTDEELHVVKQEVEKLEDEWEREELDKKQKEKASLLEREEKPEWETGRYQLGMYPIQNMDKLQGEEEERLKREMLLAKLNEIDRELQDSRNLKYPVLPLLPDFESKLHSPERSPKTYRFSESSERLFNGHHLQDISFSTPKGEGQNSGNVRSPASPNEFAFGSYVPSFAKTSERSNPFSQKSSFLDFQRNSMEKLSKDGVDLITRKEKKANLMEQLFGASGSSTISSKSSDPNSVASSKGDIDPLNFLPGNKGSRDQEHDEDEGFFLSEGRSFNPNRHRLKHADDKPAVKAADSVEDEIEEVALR
UniProt Q86X29: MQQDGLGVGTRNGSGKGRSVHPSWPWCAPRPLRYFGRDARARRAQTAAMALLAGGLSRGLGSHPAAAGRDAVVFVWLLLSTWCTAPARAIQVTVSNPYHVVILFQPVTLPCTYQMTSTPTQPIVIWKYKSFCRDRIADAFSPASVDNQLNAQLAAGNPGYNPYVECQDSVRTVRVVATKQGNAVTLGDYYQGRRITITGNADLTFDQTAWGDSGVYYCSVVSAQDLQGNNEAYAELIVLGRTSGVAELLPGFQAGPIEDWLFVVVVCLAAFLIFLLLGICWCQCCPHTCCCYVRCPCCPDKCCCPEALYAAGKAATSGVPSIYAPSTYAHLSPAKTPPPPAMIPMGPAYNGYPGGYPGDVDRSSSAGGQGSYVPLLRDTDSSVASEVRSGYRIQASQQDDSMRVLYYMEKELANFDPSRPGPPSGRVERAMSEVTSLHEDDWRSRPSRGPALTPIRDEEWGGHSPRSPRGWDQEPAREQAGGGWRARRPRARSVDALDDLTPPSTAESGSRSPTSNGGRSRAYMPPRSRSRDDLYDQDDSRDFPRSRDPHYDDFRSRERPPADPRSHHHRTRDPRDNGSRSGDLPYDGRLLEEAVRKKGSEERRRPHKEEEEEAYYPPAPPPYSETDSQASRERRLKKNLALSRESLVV
UniProt Q99732: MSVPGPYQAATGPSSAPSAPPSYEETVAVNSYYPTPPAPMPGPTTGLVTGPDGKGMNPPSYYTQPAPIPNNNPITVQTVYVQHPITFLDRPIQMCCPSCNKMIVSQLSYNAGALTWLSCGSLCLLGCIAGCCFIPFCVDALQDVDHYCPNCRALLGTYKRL
UniProt Q9H9Z2: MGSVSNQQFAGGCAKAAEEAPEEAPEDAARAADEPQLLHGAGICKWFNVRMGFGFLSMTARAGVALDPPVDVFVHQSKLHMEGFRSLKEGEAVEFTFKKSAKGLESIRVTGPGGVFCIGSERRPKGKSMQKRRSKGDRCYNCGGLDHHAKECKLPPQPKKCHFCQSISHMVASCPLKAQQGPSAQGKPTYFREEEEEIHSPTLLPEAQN
UniProt P61968: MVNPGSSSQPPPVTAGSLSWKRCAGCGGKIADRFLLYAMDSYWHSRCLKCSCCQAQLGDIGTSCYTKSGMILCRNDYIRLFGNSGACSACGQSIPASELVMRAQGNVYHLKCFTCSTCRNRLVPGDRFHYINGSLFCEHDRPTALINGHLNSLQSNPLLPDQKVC
UniProt Q6P1M3: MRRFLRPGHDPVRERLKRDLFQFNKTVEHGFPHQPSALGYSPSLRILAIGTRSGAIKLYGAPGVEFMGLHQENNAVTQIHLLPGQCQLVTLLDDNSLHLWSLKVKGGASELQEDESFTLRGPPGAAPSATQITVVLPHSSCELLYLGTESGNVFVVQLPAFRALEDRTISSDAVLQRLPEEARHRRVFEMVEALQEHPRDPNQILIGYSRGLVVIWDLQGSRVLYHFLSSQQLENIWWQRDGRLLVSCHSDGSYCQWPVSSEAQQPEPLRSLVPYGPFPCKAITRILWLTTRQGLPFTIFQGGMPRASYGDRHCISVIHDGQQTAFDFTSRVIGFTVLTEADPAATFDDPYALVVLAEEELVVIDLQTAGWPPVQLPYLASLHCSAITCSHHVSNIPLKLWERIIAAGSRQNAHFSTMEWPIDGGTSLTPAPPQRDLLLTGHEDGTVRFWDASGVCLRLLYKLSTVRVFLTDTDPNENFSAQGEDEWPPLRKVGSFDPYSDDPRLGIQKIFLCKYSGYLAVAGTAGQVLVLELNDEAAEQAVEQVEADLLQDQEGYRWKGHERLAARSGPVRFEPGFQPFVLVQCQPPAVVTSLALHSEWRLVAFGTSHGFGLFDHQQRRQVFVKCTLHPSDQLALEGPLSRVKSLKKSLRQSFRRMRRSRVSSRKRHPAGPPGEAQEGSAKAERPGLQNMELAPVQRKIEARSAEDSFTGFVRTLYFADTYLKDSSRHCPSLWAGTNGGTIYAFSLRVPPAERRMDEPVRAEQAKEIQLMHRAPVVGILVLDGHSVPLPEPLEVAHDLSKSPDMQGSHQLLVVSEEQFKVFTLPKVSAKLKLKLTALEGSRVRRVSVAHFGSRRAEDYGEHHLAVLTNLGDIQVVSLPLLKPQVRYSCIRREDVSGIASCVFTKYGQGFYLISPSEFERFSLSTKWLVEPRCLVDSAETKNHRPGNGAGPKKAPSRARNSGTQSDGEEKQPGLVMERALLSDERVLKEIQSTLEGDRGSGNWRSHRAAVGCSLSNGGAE

Key:
Assay in all cases: log2 fold change, soluble protein after heating vs DMSO (PISA); higher = thermal stabilisation; K562 lysate, 10 uM; active = over 0.2 and 3.5 SD of the protein, either way, in both replicates (recomputed)
Tubastatin A = compound: CN1CCc2c(c3ccccc3n2Cc2ccc(C(=O)NO)cc2)C1 [Tubastatin A]
Summary of the method: (§1)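 The values are log-two fold changes in thermal stability compared with solvent controls and come from duplicates. They were obtained by TMTpro 16plex LC-MS/MS, with channel sums equalised, on the supernatant after 21,000xg for 90 min. That supernatant came from crude K562 extract at 1 mg/mL protein treated with 10 μM compound for 30 min, heated for 3 min across 48°C-58°C, pooled and brought to 0.5% NP-40 at 4°C.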

[1] = compound: CNC(=O)C1=CC=CC=C1NC2=NC(=NC=C2Cl)NC3=C(C=C(C=C3)N4CCOCC4)OC
Summary of the method: as §1

defactinib = compound: CNC(=O)c1ccc(Nc2ncc(C(F)(F)F)c(NCc3nccnc3N(C)S(C)(=O)=O)n2)cc1 [defactinib]
Summary of the method: as §1

[2] = compound: CNc1nc(-c2ccc3c(N)n[nH]c3c2)cc(N2C[C@@H](C(=O)NC3CCCCC3)CC[C@H]2C)n1
Summary of the method: as §1

encorafenib = compound: COC(=O)N[C@@H](C)CNc1nccc(-c2cn(C(C)C)nc2-c2cc(Cl)cc(NS(C)(=O)=O)c2F)n1 [encorafenib]
Summary of the method: as §1

[3] = compound: COC(=O)[C@H](CCSC)NC(=O)C1=C(C=C(C=C1)NC[C@H](CS)N)C2=CC=CC=C2
Summary of the method: as §1

alisertib = compound: COc1cc(Nc2ncc3c(n2)-c2ccc(Cl)cc2C(c2c(F)cccc2OC)=NC3)ccc1C(=O)O [alisertib]
Summary of the method: as §1

[4] = compound: COc1cc2nc(-c3cc(F)ccc3O)nc(N[C@@H]3CNC[C@H]3C(C)(C)O)c2cc1OC
Summary of the method: as §1

gefitinib = compound: COc1cc2ncnc(Nc3ccc(F)c(Cl)c3)c2cc1OCCCN1CCOCC1 [gefitinib]
Summary of the method: as §1

lapatinib = compound: CS(=O)(=O)CCNCc1ccc(-c2ccc3ncnc(Nc4ccc(OCc5cccc(F)c5)c(Cl)c4)c3c2)o1 [lapatinib]
Summary of the method: as §1

pictilisib = compound: CS(=O)(=O)N1CCN(Cc2cc3nc(-c4cccc5[nH]ncc45)nc(N4CCOCC4)c3s2)CC1 [pictilisib]
Summary of the method: as §1

crizotinib = compound: C[C@@H](Oc1cc(-c2cnn(C3CCNCC3)c2)cnc1N)c1c(Cl)ccc(F)c1Cl [crizotinib]
Summary of the method: as §1

duvelisib = compound: C[C@H](Nc1ncnc2nc[nH]c12)c1cc2cccc(Cl)c2c(=O)n1-c1ccccc1 [duvelisib]
Summary of the method: as §1

tozasertib = compound: Cc1cc(Nc2cc(N3CCN(C)CC3)nc(Sc3ccc(NC(=O)C4CC4)cc3)n2)n[nH]1 [tozasertib]
Summary of the method: as §1

doramapimod = compound: Cc1ccc(-n2nc(C(C)(C)C)cc2NC(=O)Nc2ccc(OCCN3CCOCC3)c3ccccc23)cc1 [doramapimod]
Summary of the method: as §1

bafetinib = compound: Cc1ccc(NC(=O)c2ccc(CN3CC[C@H](N(C)C)C3)c(C(F)(F)F)c2)cc1Nc1nccc(-c2cncnc2)n1 [bafetinib]
Summary of the method: as §1

alvocidib = compound: CN1CC[C@H](c2c(O)cc(O)c3c(=O)cc(-c4ccccc4Cl)oc23)[C@H](O)C1 [alvocidib]
Summary of the method: as §1

[5] = compound: C[C@H](C1=CC=C(C=C1)C(=O)NC2=C3C=CNC3=NC=C2)N
Summary of the method: as §1

gandotinib = compound: Cc1cc(Nc2cc(CN3CCOCC3)c3nc(C)c(Cc4ccc(Cl)cc4F)n3n2)n[nH]1 [gandotinib]
Summary of the method: as §1

[6] = compound: Cc1cccc(CC(=O)N2CCc3c2ccc(-c2cn(C)c4ncnc(N)c24)c3F)n1
Summary of the method: as §1

Target: LRFN1 (UniProt Q9P244)
- log2 fold change (Tubastatin A): inactive: 0.055
- log2 fold change [1]: inactive: -0.373
- log2 fold change (defactinib): inactive: 0.072
- log2 fold change [2]: inactive: -0.162
- log2 fold change (encorafenib): inactive: 0.073
- log2 fold change [3]: inactive: -0.048
- log2 fold change (alisertib): inactive: 0.035
- log2 fold change [4]: inactive: 0.057
- log2 fold change (gefitinib): inactive: -0.134
- log2 fold change (lapatinib): inactive: 0.048
- log2 fold change (pictilisib): inactive: -0.242
- log2 fold change (crizotinib): inactive: -0.023
- log2 fold change (duvelisib): inactive: 0.027
- log2 fold change (tozasertib): inactive: -0.124
- log2 fold change (doramapimod): inactive: 0.062
- log2 fold change (bafetinib): inactive: 0

Target: LEPROTL1 isoform 2 (UniProt O95214)
- log2 fold change (Tubastatin A): inactive: -0.363
- log2 fold change [1]: inactive: 0.029
- log2 fold change (defactinib): inactive: 0.127
- log2 fold change [2]: inactive: -0.246
- log2 fold change [4]: inactive: -0.139
- log2 fold change (lapatinib): inactive: -0.15
- log2 fold change (pictilisib): inactive: 0.003
- log2 fold change (duvelisib): inactive: -0.19
- log2 fold change (bafetinib): inactive: -0.118

Target: LOR (UniProt P23490)
- log2 fold change (pictilisib): inactive: 0.445
- log2 fold change (bafetinib): inactive: 0.16

Target: LRRC9 (UniProt Q6ZRR7)
- log2 fold change (alvocidib): inactive: 0.911
- log2 fold change (defactinib): inactive: -0.056
- log2 fold change (encorafenib): inactive: -0.022
- log2 fold change [3]: inactive: 0.003
- log2 fold change (crizotinib): inactive: -0.065
- log2 fold change [5]: inactive: 0.032
- log2 fold change (gandotinib): inactive: -0.488
- log2 fold change (tozasertib): inactive: 0.053
- log2 fold change (doramapimod): inactive: 0.074
- log2 fold change [6]: active: 0.694

Target: LCOR isoform 3 (UniProt Q96JN0)
- log2 fold change [4]: inactive: 0.079
- log2 fold change (lapatinib): inactive: -0.119

Target: LBHD1 (UniProt Q9BQE6)
- log2 fold change (crizotinib): inactive: -0.006
- log2 fold change (doramapimod): inactive: -0.112

Target: LRP5 (UniProt O75197)
- log2 fold change [1]: inactive: 0.042
- log2 fold change [2]: inactive: -0.101
- log2 fold change (encorafenib): inactive: -0.025
- log2 fold change [3]: inactive: 0.014
- log2 fold change (duvelisib): inactive: -0.04
- log2 fold change (tozasertib): inactive: -0.083

Target: LRRC25 (UniProt Q8N386)
- log2 fold change (encorafenib): inactive: 0.002
- log2 fold change [3]: inactive: -0.066
- log2 fold change [4]: inactive: -0.067
- log2 fold change (lapatinib): inactive: -0.123
- log2 fold change (crizotinib): inactive: -0.127
- log2 fold change (tozasertib): inactive: 0.051
- log2 fold change (doramapimod): inactive: 0.112

Target: LRP1 (UniProt Q07954)
- log2 fold change (defactinib): inactive: -0.108
- log2 fold change (encorafenib): inactive: -0.091
- log2 fold change [3]: inactive: 0.043
- log2 fold change [4]: inactive: 0.034
- log2 fold change (lapatinib): inactive: -0.047
- log2 fold change (crizotinib): inactive: -0.488
- log2 fold change (tozasertib): inactive: 0.239
- log2 fold change (doramapimod): inactive: 0.022

Target: LDHD (UniProt Q86WU2)
- log2 fold change (alvocidib): inactive: -0.029
- log2 fold change (encorafenib): inactive: 0.066
- log2 fold change [3]: inactive: -0.139
- log2 fold change (pictilisib): inactive: -0.171
- log2 fold change [5]: inactive: 0.015
- log2 fold change (gandotinib): inactive: 0.208
- log2 fold change (tozasertib): inactive: -0.374
- log2 fold change (bafetinib): inactive: 0.018
- log2 fold change [6]: inactive: 0.01

Target: LCA5 (UniProt Q86VQ0)
- log2 fold change (defactinib): inactive: 0.098
- log2 fold change (encorafenib): inactive: -0.05
- log2 fold change [3]: inactive: 0.126
- log2 fold change (alisertib): inactive: -0.207
- log2 fold change (gefitinib): inactive: 0.229
- log2 fold change (crizotinib): inactive: 0.064
- log2 fold change (tozasertib): inactive: -0.194
- log2 fold change (doramapimod): inactive: 0.042

Target: LSR isoform 3 (UniProt Q86X29)
- log2 fold change (alvocidib): inactive: -0.133
- log2 fold change (crizotinib): inactive: -0.056
- log2 fold change [5]: inactive: -0.011
- log2 fold change (gandotinib): inactive: 0.008
- log2 fold change (doramapimod): inactive: 0.031
- log2 fold change [6]: inactive: 0.04

Target: LITAF (UniProt Q99732)
- log2 fold change (Tubastatin A): inactive: 0.039
- log2 fold change [1]: inactive: 0.024
- log2 fold change [2]: inactive: -0.144
- log2 fold change (encorafenib): inactive: -0.006
- log2 fold change [3]: inactive: -0.216
- log2 fold change [4]: inactive: -0.017
- log2 fold change (lapatinib): inactive: -0.002
- log2 fold change (crizotinib): inactive: -0.023
- log2 fold change (duvelisib): inactive: 0.018
- log2 fold change (tozasertib): inactive: -0.018
- log2 fold change (doramapimod): inactive: -0.009

Target: LRRC8C (UniProt E9PHY6)
- log2 fold change [1]: inactive: -0.143
- log2 fold change (defactinib): inactive: -0.108
- log2 fold change (alisertib): inactive: 0.089
- log2 fold change (gefitinib): inactive: 0.165

Target: LMBR1 isoform 3 (UniProt Q8WVP7)
- log2 fold change (alvocidib): inactive: -0.059
- log2 fold change (pictilisib): inactive: -0.001
- log2 fold change (crizotinib): inactive: 0.006
- log2 fold change [5]: inactive: -0.039
- log2 fold change (gandotinib): inactive: -0.059
- log2 fold change (doramapimod): inactive: -0.174
- log2 fold change (bafetinib): inactive: -0.214
- log2 fold change [6]: inactive: 0.143

Target: LIN28A (UniProt Q9H9Z2)
- log2 fold change (alvocidib): inactive: -0.036
- log2 fold change [1]: inactive: -0.025
- log2 fold change (alisertib): inactive: -0.01
- log2 fold change (gefitinib): inactive: 0.076
- log2 fold change (pictilisib): inactive: -0.037
- log2 fold change [5]: inactive: 0.022
- log2 fold change (gandotinib): inactive: -0.175
- log2 fold change (bafetinib): inactive: -0.061
- log2 fold change [6]: inactive: -0.118

Target: LMO4 (UniProt P61968)
- log2 fold change (Tubastatin A): inactive: 0.018
- log2 fold change [1]: inactive: -0.166
- log2 fold change (defactinib): inactive: 0.03
- log2 fold change [2]: inactive: -0.413
- log2 fold change [4]: inactive: 0.111
- log2 fold change (lapatinib): inactive: 0.038
- log2 fold change (crizotinib): inactive: -0.121
- log2 fold change (duvelisib): inactive: -0.122
- log2 fold change (doramapimod): inactive: -0.006

Target: LLGL2 (UniProt Q6P1M3)
- log2 fold change [1]: inactive: 0.256
- log2 fold change (defactinib): inactive: -0.076
- log2 fold change [2]: inactive: -0.086
- log2 fold change (encorafenib): inactive: 0.11
- log2 fold change [3]: inactive: -0.143
- log2 fold change (alisertib): inactive: -0.045
- log2 fold change [4]: inactive: -0.114
- log2 fold change (gefitinib): inactive: -0.098
- log2 fold change (lapatinib): inactive: 0.133
- log2 fold change (crizotinib): inactive: -0.092
- log2 fold change (duvelisib): inactive: -0.003
- log2 fold change (tozasertib): inactive: -0.064
- log2 fold change (doramapimod): inactive: 0.245
